Assay results reported in US12269902B2 (TRANSFERT PLUS, S.E.C., priority 2015, dated 2025).
The same purity stands for every peptide and may come from a single statement.

Experiment: general procedure: peptide synthesis; TBTU
Settings: late stage modification step, UPLC-MS

## KBP106-Dmg-Doxo
  final LC-MS purity: >95%
